## Results from one PubChem assay

The results are deposited in PubChem (AID1159506; NCATS, 2015).

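Luminescence from an EWS-FLI1 target-promoter (NR0B1) reporter, set against a CMV-promoter reporter, two days after silencing single genes in TC32 Ewing sarcoma cells. Each siRNA was applied at 20 nM. A z-score of the log NR0B1-over-CMV signal, less the median of siRNAs with the same seed; more negative means a stronger specific loss of the NR0B1 reporter.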

The strongest results of the screen are mostly left out here. Sequences are the guide (antisense) strand, without overhang.

{"strand": "UGACUUGUCAAACUCGGGC", "gene": "MTSS1L", "seed-corrected z-score": "-0.8367"}
{"strand": "UAGUGUGUAGCGGAAGUGG", "gene": "NUDT8", "seed-corrected z-score": "0.5048"}
{"strand": "UUCCUUAGAUUUUUCUUGC", "gene": "ZNF57", "seed-corrected z-score": "0.1024"}
{"strand": "ACAUUGUUAAUUUCAGGUG", "gene": "C11orf72", "seed-corrected z-score": "0.1446"}
{"strand": "UCUGGGUUGAUGUUGAUGU", "gene": "YY2", "seed-corrected z-score": "0.2575"}
{"strand": "ACCUUUAGAAGAUUCCGGG", "gene": "LRRC7", "seed-corrected z-score": "0.04507"}
{"strand": "UAGCUUACUGAAGUCGCCA", "gene": "AKR1C2", "seed-corrected z-score": "-1.579"}
{"strand": "UAUGGUGUUAGCUCGGGAG", "gene": "FAM13A", "seed-corrected z-score": "0.8023"}
{"strand": "UUCGAAUUGAACCACCUCC", "gene": "DARS2", "seed-corrected z-score": "-0.3592"}
{"strand": "UGCAUAGUAGGCAUAUUGG", "gene": "SDCCAG8", "seed-corrected z-score": "-0.7395"}
{"strand": "UGUACUAUUCAAGUUAUGC", "gene": "AKAP11", "seed-corrected z-score": "0.1065"}
{"strand": "UUUGUUUAUGUAUCCGUCC", "gene": "KCNIP1", "seed-corrected z-score": "0.3455"}
{"strand": "UGUCUUGAUAUGGACUUAC", "gene": "SKIL", "seed-corrected z-score": "-1.658"}
{"strand": "AACACUUUAACUGUAAGAG", "gene": "KLHL34", "seed-corrected z-score": "-0.1149"}
{"strand": "UUCGUAGCACUUUUCCUCC", "gene": "MEGF8", "seed-corrected z-score": "0.2652"}
{"strand": "UUUGCUAGUACAACCAGAC", "gene": "ACAT1", "seed-corrected z-score": "-0.122"}
{"strand": "UACAUUGUCAAAUAAAGCG", "gene": "SFTA3", "seed-corrected z-score": "-0.9036"}
{"strand": "UUUCCAAGCAGUCUGAUGA", "gene": "MDFIC", "seed-corrected z-score": "-1.526"}
{"strand": "UCCAGUGCUAUCCUUAUGC", "gene": "SDCBP", "seed-corrected z-score": "-1.357"}
{"strand": "AAAGAAGACUUUAAUGUGC", "gene": "FAM178B", "seed-corrected z-score": "0.2832"}
{"strand": "UAUGUCGUGAACACUCAGC", "gene": "SNRNP48", "seed-corrected z-score": "-0.4006"}
{"strand": "ACUGUGAAGAAAGCGAGGG", "gene": "ENTPD3", "seed-corrected z-score": "1.178"}
{"strand": "UUUGCAAGCACGUUCAGCC", "gene": "OGDH", "seed-corrected z-score": "0.5212"}
{"strand": "UUUAGGUAGAGCUUAAUCG", "gene": "CACNA2D3", "seed-corrected z-score": "0.2068"}
{"strand": "UUCAUCUCUAGGUUCCACC", "gene": "NCOR1", "seed-corrected z-score": "-1.467"}
{"strand": "UCAAUAUUACAUUUCUGCC", "gene": "DCTN6", "seed-corrected z-score": "0.1061"}
{"strand": "UCUUGUUGCAAUGUUGUCU", "gene": "TFPI", "seed-corrected z-score": "-0.04344"}
{"strand": "UUCGCGUCCUCUUUCAUCU", "gene": "TNNC2", "seed-corrected z-score": "-0.1298"}
{"strand": "UUACUGGUUGCACUAGUUG", "gene": "ZNF207", "seed-corrected z-score": "-0.5505"}
{"strand": "UUCGAGUGAAGGUAUCGGC", "gene": "TAP1", "seed-corrected z-score": "-0.6554"}
{"strand": "UAUGUUAUAAAAUUCCUCC", "gene": "DNAH10", "seed-corrected z-score": "-0.3224"}
{"strand": "UGUAGGUACAGACUCGAUG", "gene": "GPHB5", "seed-corrected z-score": "-0.608"}
{"strand": "UCCAAUAUGAGUCCACUCC", "gene": "FDX1L", "seed-corrected z-score": "0.1194"}
{"strand": "UUCUCAAGCUCGGAGAGGG", "gene": "FEZ1", "seed-corrected z-score": "0.4751"}
{"strand": "UCUCUGACUGUCAACAUGG", "gene": "ABCA17P", "seed-corrected z-score": "-0.406"}
{"strand": "UUUGAGUAUCUCUAUAUGG", "gene": "HIF1A", "seed-corrected z-score": "-0.7077"}
{"strand": "UCCUUGAUUAAAGCGUGCG", "gene": "LINC00482", "seed-corrected z-score": "-0.06643"}
{"strand": "AUUCGGUAUGGCACAUUCC", "gene": "RPL31", "seed-corrected z-score": "-0.5087"}
{"strand": "UAUUGAGAAUAGCUAUUCC", "gene": "OR6C3", "seed-corrected z-score": "0.03284"}
{"strand": "UCUGUGGGUUCUGGUAGGC", "gene": "TBX6", "seed-corrected z-score": "-0.7842"}
{"strand": "AAACAGAUCAGGAUGAGAA", "gene": "CD1E", "seed-corrected z-score": "0.1804"}
{"strand": "AUUCGGACCAGAUAGAGGG", "gene": "BTBD6", "seed-corrected z-score": "0.9199"}
{"strand": "UUCGCUUUGUGAUGGAUCA", "gene": "POMP", "seed-corrected z-score": "0.02856"}